Assay results reported in the supplement of paper PMC10849652.
Some of the results follow.

Chains of the proteins cited; added tags and fusions are not shown. Lines headed by an entry give the natural chain unless they say otherwise; changes in a name come on top.
UniProt Q86W50: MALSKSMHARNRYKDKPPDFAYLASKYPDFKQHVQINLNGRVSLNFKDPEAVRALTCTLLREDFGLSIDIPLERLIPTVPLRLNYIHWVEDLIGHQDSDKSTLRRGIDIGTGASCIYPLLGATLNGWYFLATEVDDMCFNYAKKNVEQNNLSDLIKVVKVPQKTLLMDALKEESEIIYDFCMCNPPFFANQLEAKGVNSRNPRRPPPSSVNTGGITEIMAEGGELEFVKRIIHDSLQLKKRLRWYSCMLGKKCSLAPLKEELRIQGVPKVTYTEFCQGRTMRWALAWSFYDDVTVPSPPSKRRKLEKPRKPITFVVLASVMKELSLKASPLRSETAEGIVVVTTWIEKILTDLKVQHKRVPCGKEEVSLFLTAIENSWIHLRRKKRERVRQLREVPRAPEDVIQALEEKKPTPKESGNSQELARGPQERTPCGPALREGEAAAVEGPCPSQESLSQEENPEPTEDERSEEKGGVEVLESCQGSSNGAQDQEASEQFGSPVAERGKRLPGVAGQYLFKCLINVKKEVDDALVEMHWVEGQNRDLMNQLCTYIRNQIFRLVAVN
UniProt Q9BTE3: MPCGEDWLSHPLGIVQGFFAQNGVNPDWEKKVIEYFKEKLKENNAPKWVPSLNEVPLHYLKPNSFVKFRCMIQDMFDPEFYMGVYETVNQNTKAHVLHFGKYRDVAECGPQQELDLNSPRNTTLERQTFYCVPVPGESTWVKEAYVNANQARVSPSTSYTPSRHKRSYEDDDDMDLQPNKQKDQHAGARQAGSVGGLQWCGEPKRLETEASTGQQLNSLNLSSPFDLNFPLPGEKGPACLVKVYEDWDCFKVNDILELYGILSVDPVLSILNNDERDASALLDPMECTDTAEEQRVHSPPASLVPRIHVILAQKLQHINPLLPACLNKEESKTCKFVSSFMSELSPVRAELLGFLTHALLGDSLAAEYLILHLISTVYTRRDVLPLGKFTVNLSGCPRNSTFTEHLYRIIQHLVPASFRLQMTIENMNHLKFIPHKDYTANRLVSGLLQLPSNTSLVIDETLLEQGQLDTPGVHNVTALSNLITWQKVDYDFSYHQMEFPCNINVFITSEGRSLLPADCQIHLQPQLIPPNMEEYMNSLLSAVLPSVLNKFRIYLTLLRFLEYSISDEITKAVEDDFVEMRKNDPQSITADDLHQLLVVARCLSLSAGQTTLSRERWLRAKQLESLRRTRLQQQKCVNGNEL
UniProt Q9UBP6: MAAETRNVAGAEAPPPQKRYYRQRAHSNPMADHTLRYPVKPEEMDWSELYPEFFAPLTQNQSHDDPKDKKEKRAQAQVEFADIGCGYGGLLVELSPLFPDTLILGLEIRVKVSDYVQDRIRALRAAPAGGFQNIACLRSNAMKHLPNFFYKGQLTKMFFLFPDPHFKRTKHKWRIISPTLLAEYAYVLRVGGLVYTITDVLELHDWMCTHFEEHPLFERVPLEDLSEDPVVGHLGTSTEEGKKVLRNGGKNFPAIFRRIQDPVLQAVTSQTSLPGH
UniProt P33991: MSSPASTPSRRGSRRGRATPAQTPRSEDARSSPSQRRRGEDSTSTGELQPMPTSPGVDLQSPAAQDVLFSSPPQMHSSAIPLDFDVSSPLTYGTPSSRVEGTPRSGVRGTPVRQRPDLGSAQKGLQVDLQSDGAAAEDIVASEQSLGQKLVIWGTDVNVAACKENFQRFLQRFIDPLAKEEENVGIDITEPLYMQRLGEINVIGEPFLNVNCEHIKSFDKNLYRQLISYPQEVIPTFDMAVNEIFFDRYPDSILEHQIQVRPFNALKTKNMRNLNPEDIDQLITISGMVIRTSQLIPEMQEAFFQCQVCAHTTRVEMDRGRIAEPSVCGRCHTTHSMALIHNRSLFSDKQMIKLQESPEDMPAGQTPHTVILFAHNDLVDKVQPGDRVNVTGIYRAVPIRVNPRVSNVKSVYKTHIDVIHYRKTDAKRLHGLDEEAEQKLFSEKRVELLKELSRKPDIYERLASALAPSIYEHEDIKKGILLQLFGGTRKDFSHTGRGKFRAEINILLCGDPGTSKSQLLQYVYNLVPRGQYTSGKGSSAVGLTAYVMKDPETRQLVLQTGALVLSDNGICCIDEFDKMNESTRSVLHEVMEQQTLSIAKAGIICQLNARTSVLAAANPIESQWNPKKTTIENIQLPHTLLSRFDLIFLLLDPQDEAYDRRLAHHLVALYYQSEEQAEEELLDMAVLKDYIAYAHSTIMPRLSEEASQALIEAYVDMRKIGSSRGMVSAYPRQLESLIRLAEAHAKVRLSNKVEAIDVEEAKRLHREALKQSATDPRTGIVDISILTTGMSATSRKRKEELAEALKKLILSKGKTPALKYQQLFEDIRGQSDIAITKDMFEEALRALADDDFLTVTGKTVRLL
UniProt Q6NUT3: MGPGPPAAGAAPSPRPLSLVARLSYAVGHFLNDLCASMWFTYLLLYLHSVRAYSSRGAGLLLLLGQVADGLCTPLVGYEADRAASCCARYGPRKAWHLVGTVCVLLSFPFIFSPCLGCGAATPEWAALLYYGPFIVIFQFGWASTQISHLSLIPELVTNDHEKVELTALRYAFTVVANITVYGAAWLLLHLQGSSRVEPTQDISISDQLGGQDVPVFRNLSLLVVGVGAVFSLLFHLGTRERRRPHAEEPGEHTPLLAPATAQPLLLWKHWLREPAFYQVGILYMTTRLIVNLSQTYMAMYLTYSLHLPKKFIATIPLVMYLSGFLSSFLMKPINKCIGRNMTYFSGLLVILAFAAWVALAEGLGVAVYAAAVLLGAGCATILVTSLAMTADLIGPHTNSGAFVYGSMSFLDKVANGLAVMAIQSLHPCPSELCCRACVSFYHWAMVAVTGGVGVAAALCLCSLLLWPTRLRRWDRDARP
UniProt Q96HR3: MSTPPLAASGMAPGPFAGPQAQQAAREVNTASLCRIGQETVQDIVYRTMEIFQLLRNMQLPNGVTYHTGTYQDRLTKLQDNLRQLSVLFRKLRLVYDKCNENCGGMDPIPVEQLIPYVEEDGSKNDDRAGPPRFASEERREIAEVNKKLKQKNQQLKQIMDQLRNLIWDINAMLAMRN
UniProt Q9Y3C7: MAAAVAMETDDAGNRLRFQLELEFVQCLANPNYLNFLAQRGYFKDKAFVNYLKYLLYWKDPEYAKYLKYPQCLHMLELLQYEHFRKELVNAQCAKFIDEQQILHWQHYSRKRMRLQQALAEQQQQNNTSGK
UniProt Q9NR56: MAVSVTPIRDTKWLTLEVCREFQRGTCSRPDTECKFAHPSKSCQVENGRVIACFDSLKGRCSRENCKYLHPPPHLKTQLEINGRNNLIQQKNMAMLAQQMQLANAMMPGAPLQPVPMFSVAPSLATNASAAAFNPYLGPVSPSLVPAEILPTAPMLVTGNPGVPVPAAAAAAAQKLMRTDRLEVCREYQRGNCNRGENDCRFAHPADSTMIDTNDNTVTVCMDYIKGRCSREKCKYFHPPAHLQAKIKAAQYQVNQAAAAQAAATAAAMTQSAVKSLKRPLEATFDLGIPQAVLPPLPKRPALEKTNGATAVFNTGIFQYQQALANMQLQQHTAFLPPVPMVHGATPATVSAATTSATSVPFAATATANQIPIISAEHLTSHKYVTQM
UniProt P21741: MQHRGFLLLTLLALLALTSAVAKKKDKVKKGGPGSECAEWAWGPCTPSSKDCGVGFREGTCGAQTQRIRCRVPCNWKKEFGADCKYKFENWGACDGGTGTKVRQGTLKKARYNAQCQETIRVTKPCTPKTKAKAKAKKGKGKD
UniProt Q71SY5: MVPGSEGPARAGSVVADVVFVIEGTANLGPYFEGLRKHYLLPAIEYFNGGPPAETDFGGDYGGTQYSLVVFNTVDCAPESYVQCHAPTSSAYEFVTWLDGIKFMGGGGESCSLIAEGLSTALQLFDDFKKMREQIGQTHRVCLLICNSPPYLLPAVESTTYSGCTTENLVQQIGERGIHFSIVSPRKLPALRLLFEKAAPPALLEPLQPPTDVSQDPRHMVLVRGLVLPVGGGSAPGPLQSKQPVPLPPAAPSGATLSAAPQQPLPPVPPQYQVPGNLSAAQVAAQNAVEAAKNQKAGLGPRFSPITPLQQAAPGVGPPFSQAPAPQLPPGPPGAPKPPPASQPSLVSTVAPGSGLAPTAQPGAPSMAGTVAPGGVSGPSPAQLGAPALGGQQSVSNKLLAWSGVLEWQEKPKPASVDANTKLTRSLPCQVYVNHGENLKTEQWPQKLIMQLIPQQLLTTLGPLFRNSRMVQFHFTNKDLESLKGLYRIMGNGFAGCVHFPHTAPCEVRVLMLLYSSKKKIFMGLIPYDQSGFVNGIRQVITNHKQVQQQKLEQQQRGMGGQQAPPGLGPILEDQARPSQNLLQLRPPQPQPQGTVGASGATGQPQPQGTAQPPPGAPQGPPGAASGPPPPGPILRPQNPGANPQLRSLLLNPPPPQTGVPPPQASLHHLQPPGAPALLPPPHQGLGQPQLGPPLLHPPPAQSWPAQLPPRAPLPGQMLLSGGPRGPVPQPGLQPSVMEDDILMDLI
UniProt Q9NVC6: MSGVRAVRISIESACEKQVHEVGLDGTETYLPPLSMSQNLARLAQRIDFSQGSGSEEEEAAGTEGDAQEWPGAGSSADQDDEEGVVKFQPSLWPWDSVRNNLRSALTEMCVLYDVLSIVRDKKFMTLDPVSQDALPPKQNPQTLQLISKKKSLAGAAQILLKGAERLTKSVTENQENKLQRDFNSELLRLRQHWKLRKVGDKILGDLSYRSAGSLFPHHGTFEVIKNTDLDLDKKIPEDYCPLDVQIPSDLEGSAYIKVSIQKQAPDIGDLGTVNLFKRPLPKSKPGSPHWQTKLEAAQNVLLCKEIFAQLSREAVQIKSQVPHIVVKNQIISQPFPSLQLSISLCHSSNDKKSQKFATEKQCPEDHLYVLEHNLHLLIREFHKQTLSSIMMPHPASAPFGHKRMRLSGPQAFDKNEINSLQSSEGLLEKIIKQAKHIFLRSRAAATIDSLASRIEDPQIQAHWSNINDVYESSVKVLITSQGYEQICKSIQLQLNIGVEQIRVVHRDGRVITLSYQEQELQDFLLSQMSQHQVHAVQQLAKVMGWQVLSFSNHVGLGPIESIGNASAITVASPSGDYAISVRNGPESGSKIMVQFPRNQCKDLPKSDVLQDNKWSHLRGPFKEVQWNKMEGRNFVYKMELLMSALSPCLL
UniProt P56270: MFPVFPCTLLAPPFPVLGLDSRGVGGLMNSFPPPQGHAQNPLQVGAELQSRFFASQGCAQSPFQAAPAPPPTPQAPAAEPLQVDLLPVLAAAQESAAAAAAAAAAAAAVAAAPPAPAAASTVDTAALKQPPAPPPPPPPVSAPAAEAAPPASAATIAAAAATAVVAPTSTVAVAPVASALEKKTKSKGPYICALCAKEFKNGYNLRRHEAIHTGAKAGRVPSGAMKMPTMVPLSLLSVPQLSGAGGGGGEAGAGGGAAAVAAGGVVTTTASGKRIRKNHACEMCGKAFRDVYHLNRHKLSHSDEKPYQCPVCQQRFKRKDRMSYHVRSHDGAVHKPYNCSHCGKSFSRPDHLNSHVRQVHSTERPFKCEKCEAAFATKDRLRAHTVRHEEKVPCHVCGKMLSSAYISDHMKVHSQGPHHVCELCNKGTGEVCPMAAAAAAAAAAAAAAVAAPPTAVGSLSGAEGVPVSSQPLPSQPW
UniProt Q16798: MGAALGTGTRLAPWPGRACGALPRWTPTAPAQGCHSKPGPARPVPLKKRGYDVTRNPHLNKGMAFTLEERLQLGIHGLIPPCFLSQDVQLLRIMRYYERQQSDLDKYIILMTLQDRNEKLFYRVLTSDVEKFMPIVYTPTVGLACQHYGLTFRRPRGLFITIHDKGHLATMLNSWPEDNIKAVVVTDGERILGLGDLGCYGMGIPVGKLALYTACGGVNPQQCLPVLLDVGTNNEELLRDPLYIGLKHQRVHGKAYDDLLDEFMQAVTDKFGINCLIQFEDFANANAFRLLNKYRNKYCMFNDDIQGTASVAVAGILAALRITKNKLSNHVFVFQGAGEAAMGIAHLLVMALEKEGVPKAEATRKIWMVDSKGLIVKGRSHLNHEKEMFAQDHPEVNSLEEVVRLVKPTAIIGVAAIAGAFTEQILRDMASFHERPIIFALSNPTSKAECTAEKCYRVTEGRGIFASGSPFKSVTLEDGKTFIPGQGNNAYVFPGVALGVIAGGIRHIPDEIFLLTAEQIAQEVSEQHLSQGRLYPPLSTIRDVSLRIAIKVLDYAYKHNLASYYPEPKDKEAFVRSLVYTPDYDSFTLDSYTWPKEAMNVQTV
UniProt Q6N075: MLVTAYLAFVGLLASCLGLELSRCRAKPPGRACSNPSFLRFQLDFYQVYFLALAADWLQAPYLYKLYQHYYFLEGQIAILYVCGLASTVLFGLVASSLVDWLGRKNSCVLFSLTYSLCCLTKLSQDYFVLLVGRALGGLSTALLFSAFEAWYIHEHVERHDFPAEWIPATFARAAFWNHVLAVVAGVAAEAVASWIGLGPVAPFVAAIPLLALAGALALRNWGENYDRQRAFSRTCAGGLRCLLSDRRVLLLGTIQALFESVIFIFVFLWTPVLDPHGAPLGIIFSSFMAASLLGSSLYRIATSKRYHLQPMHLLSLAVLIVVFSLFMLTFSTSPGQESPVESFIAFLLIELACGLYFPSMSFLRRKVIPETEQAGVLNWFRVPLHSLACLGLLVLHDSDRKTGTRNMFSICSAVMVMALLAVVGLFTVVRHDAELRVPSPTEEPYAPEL

Columns and labels:
Assay in all cases: log2 fold change, soluble protein after heating vs DMSO (PISA); higher = thermal stabilisation; K562 lysate, 10 uM; active = over 0.2 and 3.5 SD of the protein, either way, in both replicates (recomputed)
nilotinib = compound: Cc1cn(-c2cc(NC(=O)c3ccc(C)c(Nc4nccc(-c5cccnc5)n4)c3)cc(C(F)(F)F)c2)cn1 [nilotinib]
Method in brief: (§1)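 Log-two fold change in thermal stability relative to solvent controls is reported from duplicates. For each sample, crude K562 extract from dounce-homogenised pellets in PBS pH 7.4 with 1 mM MgCl2, at 1 mg/mL protein, was treated with 10 μM compound for 30 min. Aliquots heated for 3 min across 48°C-58°C were pooled, brought to 0.5% NP-40 at 4°C and cleared at 21,000xg for 90 min. The supernatant was quantified by TMTpro 16plex LC-MS/MS with channel sums equalised.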

[1] = compound: Cc1nc(Nc2n[nH]c3c2CN(C(=O)N[C@H](CN(C)C)c2ccccc2)C3(C)C)c2sccc2n1
Method in brief: as §1

dasatinib = compound: Cc1nc(Nc2ncc(C(=O)Nc3c(C)cccc3Cl)s2)cc(N2CCN(CCO)CC2)n1 [dasatinib]
Method in brief: as §1

[2] = compound: Cc1ncc(-c2ccnc(Nc3ccc(S(C)(=O)=O)cc3)n2)n1C(C)C
Method in brief: as §1

[3] = compound: Cn1cc(-c2ccc3c(c2)CCN3C(=O)Cc2cccc(C(F)(F)F)c2)c2c(N)ncnc21
Method in brief: as §1

quisinostat = compound: Cn1cc(CNCC2CCN(c3ncc(C(=O)NO)cn3)CC2)c2ccccc21 [quisinostat]
Method in brief: as §1

tipifarnib = compound: Cn1cncc1[C@@](N)(c1ccc(Cl)cc1)c1ccc2c(c1)c(-c1cccc(Cl)c1)cc(=O)n2C [tipifarnib]
Method in brief: as §1

[4] = compound: NC(=O)Nc1cc(-c2cccc(F)c2)sc1C(=O)N[C@H]1CCCNC1
Method in brief: as §1

[5] = compound: NC(=O)c1cnc(N[C@@H]2CCCC[C@@H]2N)nc1Nc1cccc(-n2nccn2)c1
Method in brief: as §1

[6] = compound: NC1(c2ccc(-c3nc4ccn5c(=O)[nH]nc5c4cc3-c3ccccc3)cc2)CCC1
Method in brief: as §1

Measured: log2 fold change

METTL16 (UniProt Q86W50)
inactive: nilotinib 0 | [1] 0.002 | dasatinib -0.001 | [2] 0.027 | [3] 0.01 | quisinostat 0.04 | tipifarnib -0.03 | [4] 0.011 | [5] 0.005 | [6] 0.023

MCMBP isoform 2 (UniProt Q9BTE3)
inactive: nilotinib 0.152 | [1] -0.039 | dasatinib 0.099 | [2] -0.144 | [3] -0.099 | quisinostat -0.076 | tipifarnib 0.066 | [4] -0.041 | [5] 0.082 | [6] -0.118

METTL1 (UniProt Q9UBP6)
inactive: nilotinib -0.053 | [1] -0.037 | dasatinib -0.035 | [2] -0.047 | [3] -0.007 | quisinostat 0.036 | tipifarnib 0.003 | [4] -0.014 | [5] -0.023 | [6] -0.009

MED4 (UniProt Q9NPJ6)
inactive: nilotinib 0.017 | [1] 0.001 | dasatinib 0.025 | [2] 0.036 | [3] 0.034 | quisinostat -0.005 | tipifarnib -0.054 | [4] -0.007 | [5] 0.02 | [6] -0.024

MCRIP1 (UniProt I3L4Q0)
inactive: nilotinib 0.014 | [1] 0.048 | dasatinib 0.011 | [2] 0.026 | [3] 0.024 | quisinostat -0.126 | tipifarnib -0.032 | [4] -0.008 | [5] -0.047 | [6] 0

MCM4 (UniProt P33991)
inactive: nilotinib 0.008 | [1] -0.017 | dasatinib -0.063 | [2] -0.018 | [3] 0.004 | quisinostat -0.028 | tipifarnib -0.027 | [4] 0.013 | [5] -0.002 | [6] -0.022

MED7 (UniProt O43513)
inactive: nilotinib -0.096 | [1] 0.168 | dasatinib -0.056 | [2] 0.014 | [3] -0.038 | quisinostat -0.015 | tipifarnib 0.077 | [4] 0.078 | [5] 0.027 | [6] 0.155

MCEE (UniProt Q96PE7)
inactive: nilotinib 0.017 | [1] -0.008 | dasatinib -0.011 | [2] 0.04 | [3] -0.362 | quisinostat 0.208 | tipifarnib 0.003 | [4] 0 | [5] 0.088 | [6] 0.026

MFSD12 isoform 3 (UniProt Q6NUT3)
inactive: nilotinib 0.16 | [1] 0.074 | dasatinib -0.032 | [2] 0.204 | [3] -0.077 | quisinostat -0.161 | tipifarnib -0.363 | [4] 0.125 | [5] -0.156 | [6] 0.011

MED30 (UniProt Q96HR3)
inactive: nilotinib 0.008 | [1] 0.018 | dasatinib 0.024 | [2] -0.091 | [3] -0.006 | quisinostat -0.049 | tipifarnib 0.009 | [4] 0.024 | [5] -0.04 | [6] 0.008

MED31 (UniProt Q9Y3C7)
inactive: nilotinib -0.001 | [1] 0.018 | dasatinib -0.034 | [2] 0.059 | [3] 0.039 | quisinostat -0.035 | tipifarnib -0.023 | [4] -0.027 | [5] -0.021 | [6] -0.002

ME1 (UniProt P48163)
inactive: nilotinib -0.02 | [1] -0.021 | dasatinib 0.046 | [2] -0.014 | [3] 0.02 | quisinostat -0.051 | tipifarnib 0 | [4] 0.006 | [5] -0.007 | [6] -0.013

MCM6 (UniProt Q14566)
inactive: nilotinib -0.053 | [1] 0.016 | dasatinib -0.006 | [2] -0.018 | [3] 0.01 | quisinostat 0.019 | tipifarnib 0.004 | [4] -0.002 | [5] -0.003 | [6] 0.009

MBNL1 isoform 5 (UniProt Q9NR56)
inactive: nilotinib 0.012 | [1] -0.004 | dasatinib -0.077 | [2] -0.067 | [3] 0.004 | quisinostat 0.034 | tipifarnib -0.061 | [4] -0.044 | [5] 0.02 | [6] 0.074

METTL7A (UniProt Q9H8H3)
inactive: nilotinib 0.168 | [1] 0.014 | dasatinib 0.198 | [2] -0.01 | [3] 0.096 | quisinostat -0.112 | tipifarnib 0.03 | [4] -0.026 | [5] -0.055 | [6] -0.068

MDK (UniProt P21741)
inactive: nilotinib 0.074 | [1] -0.03 | dasatinib -0.003 | [2] 0.028 | [3] -0.079 | quisinostat 0.198 | tipifarnib 0.097 | [4] 0.025 | [5] 0.029 | [6] 0.014

MED25 isoform 3 (UniProt Q71SY5)
inactive: nilotinib 0.132 | [1] 0.026 | dasatinib -0.039 | [2] 0.097 | [3] -0.017 | quisinostat -0.008 | tipifarnib -0.024 | [4] 0.029 | [5] -0.013 | [6] -0.073

MEAF6 isoform 3 (UniProt Q9HAF1)
inactive: nilotinib 0.009 | [1] -0.045 | dasatinib -0.002 | [2] -0.036 | [3] -0.025 | quisinostat -0.092 | tipifarnib 0.012 | [4] 0.02 | [5] -0.018 | [6] 0

MFN1 (UniProt Q8IWA4)
inactive: nilotinib 0.014 | [1] 0.071 | dasatinib -0.018 | [2] 0.1 | [3] -0.018 | quisinostat -0.184 | tipifarnib -0.012 | [4] 0.047 | [5] 0.072 | [6] -0.009

Quoted from the results shown (two entries):
MED4 (UniProt Q9NPJ6)
inactive: nilotinib 0.017 | [1] 0.001 | dasatinib 0.025 | [2] 0.036 | [3] 0.034 | quisinostat -0.005 | tipifarnib -0.054 | [4] -0.007 | [5] 0.02 | [6] -0.024

MCRIP1 (UniProt I3L4Q0)
inactive: nilotinib 0.014 | [1] 0.048 | dasatinib 0.011 | [2] 0.026 | [3] 0.024 | quisinostat -0.126 | tipifarnib -0.032 | [4] -0.008 | [5] -0.047 | [6] 0

(next part)

MED17 (UniProt Q9NVC6)
inactive: nilotinib -0.011 | [1] 0.036 | dasatinib -0.033 | [2] -0.116 | [3] -0.014 | quisinostat -0.033 | tipifarnib -0.075 | [4] 0.019 | [5] 0.038 | [6] 0.005

MAZ isoform 2 (UniProt P56270)
inactive: nilotinib 0.028 | [1] 0.016 | dasatinib 0.035 | [2] -0.017 | [3] -0.003 | quisinostat -0.003 | tipifarnib -0.017 | [4] -0.033 | [5] -0.124 | [6] -0.009

METAP2 (UniProt P50579)
inactive: nilotinib 0.028 | [1] 0.028 | dasatinib 0.04 | [2] 0.044 | [3] 0 | quisinostat -0.016 | tipifarnib 0.01 | [4] -0.004 | [5] -0.028 | [6] 0.001

ME3 (UniProt Q16798)
inactive: nilotinib -0.047 | [1] -0.173 | dasatinib 0.034 | [2] -0.33 | [3] -0.052 | quisinostat -0.129 | tipifarnib -0.041 | [4] 0.084 | [5] -0.044 | [6] 0.001

MFSD5 isoform 2 (UniProt Q6N075)
inactive: nilotinib 0.132 | [1] 0.073 | dasatinib 0.001 | [2] -0.002 | [3] -0.058 | quisinostat 0 | tipifarnib -0.132 | [4] 0.023 | [5] -0.145 | [6] -0.147

MED16 (UniProt Q9Y2X0)
inactive: nilotinib -0.019 | [1] 0.01 | dasatinib -0.026 | [2] 0.023 | [3] -0.016 | quisinostat -0.01 | tipifarnib 0.008 | [4] -0.013 | [5] 0.023 | [6] -0.047

MED23 (UniProt Q9ULK4)
inactive: nilotinib -0.016 | [1] 0.049 | dasatinib -0.01 | [2] -0.027 | [3] 0.031 | quisinostat -0.054 | tipifarnib 0.03 | [4] 0.027 | [5] 0.02 | [6] -0.017

MEIS2 (UniProt O14770)
inactive: nilotinib 0.046 | [1] -0.073 | dasatinib 0.045 | [2] -0.026 | [3] -0.037 | quisinostat -0.021 | tipifarnib -0.001 | [4] 0.058 | [5] 0.016 | [6] -0.009

MED1 (UniProt Q15648)
inactive: nilotinib 0.041 | [1] -0.035 | dasatinib -0.016 | [2] 0.009 | [3] -0.026 | quisinostat 0 | tipifarnib -0.022 | [4] 0.007 | [5] -0.011 | [6] 0.003

MECP2 isoform 2 (UniProt P51608)
inactive: nilotinib 0.031 | [1] 0.038 | dasatinib 0.03 | [2] 0.035 | [3] -0.001 | quisinostat -0.045 | tipifarnib -0.003 | [4] 0.039 | [5] 0.03 | [6] -0.034
